Reference: paper PMC2359919, “Molecular targeting of retinoic acid metabolism in neuroblastoma: the role of the CYP26 inhibitor R116010 in vitro and in vivo” (British Journal of Cancer, 2007)

Test system: SH-SY5Y, NGP, SH-EP and GIMEN cells
Test: Intracellular ATRA and 13cisRA concentrations in neuroblastoma cells, normal-phase HPLC
Format: cell-based, human
Details: 24 h
Protocol: SH-SY5Y, SH-EP (N- and S-type cells respectively derived from the parental line SK-N-SH), LAN6, IMR-32, NGP and GIMEN neuroblastoma cell lines were cultured routinely in RPMI 1640 medium containing fetal calf serum (10%) and L-glutamine (2 mM). Cells were grown at 37°C in a humidified incubator containing 5% CO2.
13-cis-Retinoic acid and ATRA were dissolved in DMSO and diluted in cell culture medium to obtain final concentrations of 0.1–10 μM. The final concentration of DMSO in all cases was <0.2%. All experiments were performed in dim light and tubes containing retinoids were wrapped in aluminium foil.
Cell pellets obtained from retinoid incubations were re-suspended in 2 ml cell culture medium and disrupted by passing the samples several times through a syringe and hypodermic needle (25G × 1 inches, 0.5 mm × 25 mm; Terumo, Somerset, NJ, USA). […] Samples were reconstituted in 200 μl mobile phase A (n-hexane:dichloromethane:propan-2-ol, 400 : 1 : 0.27) and analysed by normal-phase HPLC as described previously ([Veal et al, 2002]). […]
Quantification of retinoid levels was carried out by HPLC analysis using a Waters 2690 Separations Module and 996 Photodiode array detector (Waters Ltd, Elstree, UK) and Waters Millennium software for data acquisition. Cell volumes were determined as described previously ([Veal et al, 2002]), and intracellular RA concentrations were expressed in micromolars.

Row | SMILES | ATRA as % of total RA after 13cisRA incubation (10 μM 13cisRA alone or with R116010 (1 or 10 μM)) | 13cisRA as % of total RA after incubation with ATRA (10 μM ATRA alone or with R116010 (1 or 10 μM))
1 | CC1=C(/C=C/C(C)=C/C=C/C(C)=C/C(=O)O)C(C)(C)CCC1 [ATRA, all-trans-retinoic acid] | 15–31% | –
2 | CC1=C(/C=C/C(C)=C/C=C/C(C)=C\C(=O)O)C(C)(C)CCC1 [13cisRA, 13-cis-retinoic acid] | – | < 10%
